Data reported in the supplement of paper PMC12889115.
Some of the results follow. Values are raw readings; no control value is given beside them.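 In the initial screen, polymyxin B was used at a concentration that permeabilizes Salmonella's outer membrane but not its inner membrane. Maximum growth was set by DMSO wells with or without polymyxin B. Since plates varied, data were ranked per plate, and compounds giving the lowest OD600 advanced as hits.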

Test system: Salmonella enterica serovar Typhimurium SL1344
Test: bacterial growth OD600 after 18 h with compound and polymyxin B; higher = more bacterial growth (less inhibition)
Details: 50 µM, Mueller-Hinton broth

Compound	bacterial growth OD600 (polymyxin B 0.75 µg/mL)	bacterial growth OD600 (polymyxin B 1 µg/mL)
Cc1cccc(C)c1OCc1cc(C(=O)N2CCC(CCN3CCCC3=O)CC2)no1	0.653	
Cc1ccccc1-n1ncc(C(C)NC(=O)c2cc(=O)n(C)c(=O)n2C)c1C (stereo not drawn)		0.958
COc1ccccc1OCc1cc(C(=O)N(CCO)Cc2ccccc2)no1		0.855
CCOC(=O)C1(Cc2ccc(OC)cc2)CCN(S(=O)(=O)c2ccsc2)CC1	0.855	
Cc1ccccc1CCC1CCCN(C(=O)c2ccco2)C1 (stereo not drawn)	0.319	
COc1cccc(C(=O)NCC2Cc3cc(F)cc(-c4ccccn4)c3O2)c1 (stereo not drawn)	0.884	
CO[C@H]1[C@H](NC(=O)c2ccco2)c2ccccc2C12CCN(Cc1cc(C)cc(C)c1)CC2	0.698	
c1ccc2c(c1)CC(N1CCCC(NC3CSCCSC3)C1)C2 (stereo not drawn)		1.14
COc1ccc(C(CC(=O)N2CCOCC2)c2ccccc2)cc1 (stereo not drawn)		0.748
CN(C)C(=O)CCC(=O)N1CCc2onc(-c3ccccc3F)c2C1	0.969	
Cc1ccc2c(c1)CN(C(=O)c1ccc(F)c(F)c1)CC(C)O2 (stereo not drawn)	0.692	
COc1cccc([C@@H](C)NC(=O)CCc2nnc(Cc3cc(OC)ccc3OC)o2)c1		1.08
CC(C)(C)C(=O)Nc1ccnn1C1CCN(Cc2c[nH]nc2-c2ccccc2)CC1		0.991
COC(c1ccc2c(c1)CN(C(=O)c1cscn1)CCO2)C1CCCCC1 (stereo not drawn)	0.697	
Cc1ccc(CN2CCC(CN(C)Cc3cccc(F)c3)CC2)o1		0.812
CCOC(=O)C1(C/C=C/c2ccccc2)CCCN(Cc2cccnc2)C1 (stereo not drawn)		0.058
OCCC1CN(Cc2ccc(O)cc2)CCN1Cc1ccc(F)c(F)c1 (stereo not drawn)		0.999

Compound	bacterial growth OD600 (polymyxin B 0.75 µg/mL)	bacterial growth OD600 (polymyxin B 1 µg/mL)
COc1cccc(CN2CCCC3(CCN(C(=O)c4cc(C)ccc4O)C3)C2)c1 (stereo not drawn)		0.751
COCc1noc(-c2ccc(NCc3nc(C)c(C)s3)nc2)n1	0.873	
CN1C(=O)CC(CC(=O)N2CCN(c3ncccn3)CC2)(c2ccc(-c3ccccc3)cc2)C1=O (stereo not drawn)	0.799	
Cc1nn(C)c(C)c1CN(C(=O)c1cc(COc2ccccc2)on1)C1CC1	0.777	
Cc1ccc(OCc2cc(C(=O)NCCc3c[nH]c4ccccc34)no2)cn1	0.284	
CCOC(=O)N1CCC(NC2CCN(c3cccc(NC(=O)c4ccccc4OC)c3)CC2)CC1	0.861	
O=C(CSc1ccccn1)NCc1cccnc1N1CCOCC1		0.81
CC(C)CN1CCC(CNC(=O)c2cc(NC(=O)C3CCCO3)c3c(c2)nc(C2CCC2)n3C)CC1 (stereo not drawn)	0.811	
Cc1cccnc1CC(C)NC(=O)c1cc(Cn2ccnc2C(C)C)[nH]n1 (stereo not drawn)		1.01
CCNC(=O)c1cn(CCc2ccccc2)cc(C(=O)N(C)Cc2cc3ccccc3s2)c1=O	0.863	
O=C(Nc1ccnn1C1CCN(C(=O)C2=CCCC2)CC1)C1CC1	0.854	
CCOc1cc(CNC(C)c2cnn(-c3cccc(F)c3)c2C)ccc1OC (stereo not drawn)	0.794	
CSCC(=O)NC1CC(=O)N(Cc2cccc3ccccc23)C1 (stereo not drawn)		0.936
Cc1oc(-c2ccccc2NC(=O)CCOc2ccccc2)nc1CNC(=O)CCn1nccc1C	0.005	
OCC1(Cc2ccc(Cl)cc2)CCN(Cc2ccccc2F)CC1		0.661
CCC1CN(c2ccc(-c3nc(COc4ccccc4)no3)cn2)CCN1C (stereo not drawn)		0.565

Pulled one by one from above:
Compound	bacterial growth OD600 (polymyxin B 0.75 µg/mL)	bacterial growth OD600 (polymyxin B 1 µg/mL)
O=C(Nc1ccnn1C1CCN(C(=O)C2=CCCC2)CC1)C1CC1	0.854	
CC(C)(C)C(=O)Nc1ccnn1C1CCN(Cc2c[nH]nc2-c2ccccc2)CC1		0.991
